Results are given in words; binding and its absence hold for the method and conditions named. In cells and extracts the contact can be indirect. Some results given as binding are weak or reduced against the parent protein; the word gives no strength. Where a sequence is shown, tags or fusion partners need not be part of it.
Experiments:
[1] = molecular target: human GSK3α with a FLAG tag at the N-terminal side (human) (UniProt P49840); assay: examination of interactions of glucose metabolism-related proteins with CAPBP1 (co-immunoprecipitation)
[2] = molecular target: human GSK3α with a FLAG tag at the N-terminal side (human) (UniProt P49840); assay: co-immunoprecipitation from COS-1 cells with anti-FLAG antibody, anti-V5 Western blot

Chains of the proteins cited; added tags and fusions are not shown. Residues count along the entry.
UniProt P49840, residues 2-483: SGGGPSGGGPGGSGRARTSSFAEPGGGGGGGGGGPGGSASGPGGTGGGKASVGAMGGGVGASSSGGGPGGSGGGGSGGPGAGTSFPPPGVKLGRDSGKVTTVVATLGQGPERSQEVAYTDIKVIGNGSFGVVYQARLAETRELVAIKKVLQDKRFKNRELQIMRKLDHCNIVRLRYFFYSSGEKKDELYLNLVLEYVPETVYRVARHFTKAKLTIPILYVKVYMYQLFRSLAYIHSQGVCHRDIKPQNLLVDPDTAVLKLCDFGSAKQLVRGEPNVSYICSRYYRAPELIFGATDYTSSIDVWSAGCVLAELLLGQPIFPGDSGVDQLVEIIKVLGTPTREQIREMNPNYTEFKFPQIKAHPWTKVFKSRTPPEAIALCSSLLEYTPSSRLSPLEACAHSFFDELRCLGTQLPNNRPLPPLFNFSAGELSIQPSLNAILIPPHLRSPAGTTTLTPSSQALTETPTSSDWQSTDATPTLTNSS

B1: CAPBP1-V3-His6 fusion protein (CAPBP1 with C-terminal V5 epitope and His6 tag), from pcDNA-CAPBP1 (-) (protein, not shown: small tags and cut ends)
chain: MRRSRSSAAAKLRGQKRSGASAAPAASAAAALAPSATRTRRSASQAGSKSQAVEKPPSEKPRLRRSSPRAQEEGPGEPPPPELALLPPPPPPPPTPATPTSSASNLDLGEQRERWETFQKRQKLTSEGAAKLLLDTFEYQGLVKHTGGCHCGAVRFEVWASADLHIFDCKYRNYI
binding [1]: binds
binding [2]: binds
